Laboratory results reported in PubChem BioAssay AID540256 (National Center for Advancing Translational Sciences (NCATS), 2011).
“And” between values parts separate entries of the source, which are not always exact repeats. Equal entries are not always repeated. The campaign covered roughly 300,000 compounds. About 3,700 (1.2%) were called active. The inconclusive results got no clear call from the source; some entries with a clear call stand among them for comparison. The call rests on the fitted dose curve; tested in HEK293 cells. Potencies of inconclusive entries are doubtful fits and often do not repeat.
On the % scale 0 is the no-effect control and ±100 the full control effect; potency means the concentration at half of the fitted maximal effect.

Experiment: qHTS for Inhibitors of binding or entry into cells for Lassa Virus; further: nearly all actives have a fitted effect of over 50% in size
Conditions: Lassa virus pseudotype entry inhibition, cell reporter; activity change, negative = inhibition: at 37.9 µM (top of the series) unless noted
For `COc1cccc(-n2c(=O)c3c(C)c(C(=O)N(C)C)sc3n(CC(=O)NCCc3ccc(OC)c(OC)c3)c2=O)c1`, the Potency was inconclusive: 35.5 µM [activator, single point]. With `O=C(c1cc(S(=O)(=O)N2CCOCC2)ccc1F)N(CCc1ccccc1)Cc1ccccc1` the Potency was inconclusive: 35.5 µM [inhibitor, single point]. For `CSc1ccccc1NP1(=O)OCC(C)([N+](=O)[O-])CO1` (stereo not given), the “activity change, negative = inhibition” value was inactive: -6.93%. In the case of `O=C(COC(=O)CCCC1=NS(=O)(=O)c2ccccc2N1)Nc1ccc(Br)cc1`, the Potency is reported as inconclusive: 14.1 µM [activator, single point]. In the case of `CCOc1ccc(N2C(=O)C3=C(C(c4ccc(Cl)cc4)=NCCN3)C2c2cccnc2)cc1` (stereo not given), the Potency is reported as inconclusive: 35.5 µM [inhibitor, single point]. For `CN1CCN(CCOc2ccc(Cl)c(Cl)c2)CC1`, the “activity change, negative = inhibition” value was inactive: 12.2%. In the case of `O=C(OCC(=O)c1c[nH]c2ccccc12)c1ccc([N+](=O)[O-])s1`, the “activity change, negative = inhibition” value is reported as inactive: -9.6% [at 46.1 µM]. With `Cc1ccc(S(=O)(=O)Nc2cc(C(=O)NCCN3CCCC3)ccc2N2CCCCC2)cc1` the Potency was inconclusive: 35.5 µM [inhibitor, single point]. For `CCOc1ccccc1CNC(=O)c1ccc(Sc2ccc(Cl)cc2)c(NC(C)=O)c1`, the “activity change, negative = inhibition” value was inactive: -0.747%. With `Cc1ccc(CNC(=O)C(=O)NCC2OCCN2S(=O)(=O)c2ccc(C)cc2)cc1` (stereo not given) the Potency was inconclusive: 3.55 µM [inhibitor, single point]. For `Cc1ccc(N2CCN(C(=O)Cc3c(C(=O)O)c(C)cn3C)CC2)c(C)c1`, the Potency was inconclusive: 31.6 µM [activator, single point]. With `Cc1ccc(C)c(OCc2nc(-c3cccnc3)no2)c1` the “activity change, negative = inhibition” value was inactive: -5.79%. In the case of `CC(C)c1ccc(NC(=O)c2csnn2)cc1`, the Potency is reported as active: 9.2 µM. With `Cc1ccc(C)c(N(Cc2ccccc2F)S(C)(=O)=O)c1` the Potency was inconclusive: 0.562 µM [inhibitor, full curve, poor fit]. For `O=C(COC(=O)c1n[nH]c2ccccc12)Nc1ccccc1Br`, the “activity change, negative = inhibition” value was inactive: 3.48%. For `O=C(CSc1nnc(Cc2ccccc2)o1)Nc1ccc2c(c1)OCO2`, the “activity change, negative = inhibition” value was inactive: 0.39%. For `Clc1cccc(/C=N/Nc2nc(Cl)nc3ccccc23)c1`, the Potency was inconclusive: 10.3 µM [activator, partial curve]. For `CCOc1cccc(CC(=O)N2CCc3c([nH]c4ccccc34)C2c2ccc(F)cc2)c1OCC` (stereo not given), the Potency was inconclusive: 14.1 µM [inhibitor, single point]. In the case of `O=C(c1cc(-c2ccccc2)n[nH]1)N1CCc2c([nH]c3ccccc23)C1c1ccccn1` (stereo not given), the Potency is reported as inconclusive: 12.6 µM [inhibitor, partial curve, poor fit]. In the case of `FC(F)(F)c1nnc(-c2ccccc2)nc1N1CCCC1`, the Potency is reported as inconclusive: 31.6 µM [activator, single point]. For `Cc1ccc(CNC(=O)CSCc2ccc(F)cc2)cc1`, the Potency was “inactive and inconclusive: 20 µM [inhibitor, single point]”. For `O=C(O)CCN1C(=O)c2ccc(Oc3ccc([N+](=O)[O-])cc3)cc2C1=O`, the Potency was inconclusive: 5.62 µM [inhibitor, full curve, poor fit]. For `CCOc1ccc(Nc2nc(Cc3nnc(SCC(=O)NC4CCCCC4)n3C)cs2)cc1`, the Potency was inconclusive: 11.6 µM [inhibitor, partial curve, poor fit]. With `COc1ccccc1NC(=O)c1cccc(S(=O)(=O)N2CCN(Cc3ccccc3)CC2)c1` the Potency was inconclusive: 44.7 µM [inhibitor, partial curve, poor fit]. For `CCOC(=O)c1cc(C#N)c(N2CCN(c3ccccn3)CC2)nc1-c1ccccc1`, the Potency was inconclusive: 35.5 µM [inhibitor, partial curve, poor fit]. For `O=C(/C=C/c1ccc(Br)cc1)c1ccco1`, the Potency was inconclusive: 4.47 µM [inhibitor, partial curve, poor fit]. With `O=C(COc1ccc(S(=O)(=O)NC2CCCCC2)cc1)Nc1ccc(C(F)(F)F)cc1` the “activity change, negative = inhibition” value was inactive: -11.5% [at 46.1 µM]. For `Cc1c(C(=O)N2CCC3(CC2)OCCO3)sc2ncnc(N3CCc4ccccc4C3)c12`, the Potency was inconclusive: 12.6 µM [inhibitor, partial curve, poor fit]. For `CCOc1ccc2c(c1)C(c1ccc(C)o1)=NNC(c1ccncc1)=N2`, the Potency was inconclusive: 3.16 µM [inhibitor, partial curve, poor fit]. For `CC(Sc1nnc(N)s1)C(=O)Nc1ccc2c(c1)OCO2` (stereo not given), the Potency was inconclusive: 35.5 µM [activator, single point]. For `CN(C)c1cc(O)c(C(=S)Nc2ccccc2)c(N(C)C)c1`, the “activity change, negative = inhibition” value was inactive: 9.72%. For `CCC(Oc1ccccc1)C(=O)Nc1ccc2oc(-c3ccc(OC)cc3)nc2c1` (stereo not given), the Potency was inconclusive: 3.98 µM [activator, single point]. In the case of `COCCNC(=O)/C(C#N)=C/c1c(N2CCCCCC2)nc2c(C)cccn2c1=O`, the Potency is reported as inconclusive: 25.1 µM [inhibitor, single point]. For `S=C(NCCc1ccc(Cl)cc1)NC1CCCCC1`, the Potency was inconclusive: 35.5 µM [inhibitor, single point]. With `COc1ccccc1N1CCN(Cc2cc(=O)c(OCC(=O)Nc3ccccc3)co2)CC1` the Potency was inconclusive: 1.41 µM [inhibitor, partial curve, poor fit]. In the case of `Cc1cc(C)c(NC(=O)CNC(=O)COC(=O)CN2C(=O)NC3(CCCC3)C2=O)c(C)c1`, the “activity change, negative = inhibition” value is reported as inactive: 13.3%. For `CCNC(=O)C1CC(=O)N(Cc2ccc3c(c2)OCO3)C(=Nc2ccc(OCC)cc2)S1` (stereo not given), the Potency was inconclusive: 5.01 µM [inhibitor, partial curve, poor fit]. In the case of `Cc1ccc(S(=O)(=O)NCc2ccc(C(=O)NC3CCCCC3)cc2)cc1`, the Potency is reported as inconclusive: 25.1 µM [inhibitor, partial curve, poor fit]. For `CN(c1ccccc1)S(=O)(=O)c1ccc(C(=O)NCCc2ccc(F)cc2)cc1`, the Potency was inconclusive: 22.4 µM [inhibitor, partial curve, poor fit]. With `CCNS(=O)(=O)c1ccc(CCC(=O)NCc2ccc(C)cc2)cc1` the Potency was inconclusive: 6.31 µM [inhibitor, single point]. For `O=C(O)c1ccccc1-c1csc(-c2ccccc2)n1`, the Potency was inconclusive: 35.5 µM [inhibitor, single point]. In the case of `Cc1ccccc1CNC(=O)Cn1ncn2nc(-c3cccs3)cc2c1=O`, the “activity change, negative = inhibition” value is reported as inactive: 6.57% [at 46.1 µM]. In the case of `CCOc1ccccc1CNC(=O)c1cc2cc(S(=O)(=O)N3CCCCC3)ccc2n1C`, the Potency is reported as inconclusive: 7.08 µM [inhibitor, full curve]. For `COc1cccc(NC(=O)Cn2cc(S(=O)(=O)N3CCCC3)c(S(=O)(=O)N3CCCC3)c2)c1`, the Potency was inconclusive: 35.5 µM [activator, single point]. For `N/C(=N\OC(=O)CCCOc1ccccc1)c1ccc([N+](=O)[O-])cc1`, the “activity change, negative = inhibition” value was inactive: 10.1% [at 46.1 µM]. In the case of `Cc1ccc(NC(=O)CCNC(=O)c2ccc(Cl)cc2)nc1`, the “activity change, negative = inhibition” value is reported as inactive: 5.57% [at 46.1 µM]. With `O=C1CC(SC(=Nc2ccccc2)Nc2ccccc2)C(=O)N1c1ccc(Cl)c(Cl)c1` (stereo not given) the Potency was inconclusive: 10 µM [inhibitor, partial curve, poor fit]. In the case of `CCOC(=O)N(NC(=O)C(O)(CC(C)C)CC(C)C)c1ccccc1`, the Potency is reported as inconclusive: 39.8 µM [inhibitor, partial curve, poor fit]. In the case of `CN(C)c1ccc(C=c2c3cc([N+](=O)[O-])ccc3n3c2cc(-c2ccccc2)[n+]3C)cc1`, the Potency is reported as active: 8.91 µM. For `Cn1c(O)c(C=Nc2ccccc2Sc2ccccc2)c(=O)n(C)c1=O`, the Potency was inconclusive: 8.91 µM [activator, partial curve, poor fit]. For `CCOC(=O)c1cnc2c(N=Nc3ccccc3)c(N)nn2c1N`, the “activity change, negative = inhibition” value was inactive: -28%. For `CNC(=O)OCc1nc(SSC(C)(C)C)n(C)c1COC(=O)NC`, the Potency was inconclusive: 22.4 µM [inhibitor, single point]. With `CCc1cccc(N(C(=O)c2csnn2)C(C(=O)NC(C)(C)C)c2ccccn2)c1` (stereo not given) the Potency was inconclusive: 2 µM [activator, full curve, poor fit]. For `COc1ccccc1N1CCN(C(c2ccc(N(C)C)cc2)c2nnnn2CCc2ccccc2)CC1` (stereo not given), the Potency was inconclusive: 0.631 µM [inhibitor, partial curve, poor fit]. In the case of `Nc1cc(OCC(F)(F)F)cc([N+](=O)[O-])c1`, the Potency is reported as inconclusive: 0.447 µM [activator, single point]. With `CC(=O)c1cccc(NC(=O)C2CCCN(c3nnc(-n4cccc4)s3)C2)c1` (stereo not given) the “activity change, negative = inhibition” value was inactive: 0.425% [at 46.1 µM]. In the case of `CCN(CC)CCNC(=O)c1ccc(NC(=O)Nc2cccc3ccccc23)cc1`, the Potency is reported as inconclusive: 35.5 µM [inhibitor, single point]. With `Nc1nnc(SCC(=O)c2cccc([N+](=O)[O-])c2)s1` the Potency was inconclusive: 0.224 µM [inhibitor, single point]. For `O=C(CCCN1Cc2ccccc2C1)c1ccc(F)cc1`, the “activity change, negative = inhibition” value was inactive: 25.2%. In the case of `CCN(CC(=O)Nc1ccc(Cl)c(C(F)(F)F)c1)CC(=O)NC1CCS(=O)(=O)C1` (stereo not given), the Potency is reported as inconclusive: 35.5 µM [inhibitor, single point]. In the case of `S=C1SCN(Cc2ccccn2)CN1Cc1ccco1`, the “activity change, negative = inhibition” value is reported as inactive: 13.5% [at 14.3 µM]. With `CCOc1ccc(CC(=O)Nc2c(C(=O)c3ccc(C)cc3)oc3ccccc23)cc1OCC` the “activity change, negative = inhibition” value was inactive: 14.1% [at 46.1 µM]. In the case of `Cc1noc(C)c1COc1ccc(C(=O)OCC(=O)Nc2ccc(C(=O)N(C)C)cc2)cc1`, the Potency is reported as inconclusive: 0.891 µM [activator, partial curve, poor fit]. With `CCOC(=O)c1sc(NC(=O)/C=C/c2ccc(OCC)cc2)c(C(=O)OCC)c1C` the Potency was inconclusive: 10 µM [activator, partial curve]. In the case of `Cc1cccc(-n2cnc(C(=O)NNC(=S)Nc3ccc(Cl)cc3)c2)n1`, the Potency is reported as inconclusive: 3.16 µM [inhibitor, partial curve, poor fit].
